Data as given in PubChem BioAssay AID1259254 (NCATS, 2017).
Aim: 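Genome-wide screen for genes that prevent DNA re-replication in cancer cells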 (primary screen). Cells: human HCT116 colorectal cancer cells. Reagents: single siRNA against human genes. Duration: 3 days. Measured: 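Nuclei stained with Hoechst and imaged; cell-cycle phase assigned by DNA content; G2 share scaled per plate, non-targeting siRNA 0%, GMNN siRNA 100%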. Direction: G2 robust z-score and G2 cells, % of GMNN control: higher = more G2 cells, more excess DNA replication; raw share of cells in G2: higher = larger share of cells with G2 DNA content. Hit rule: 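An siRNA counts as active if its G2 robust z-score lies at least 5 MADs above the screen median; here such calls match roughly 38% of GMNN control or more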.
Shown is a random part of about 59,000 deposited reagents. About 1,550 of all reagents (2.6%) were called active. 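G2 share is only a proxy for re-replication; each gene was hit by three separate siRNAs, and active genes were retested.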 The raw values are shown without normalisation. A number with no mark means an inactive call. The numbers tell different reagents against one gene apart. The record does not give: the amount of reagent.

gene | reagent no. | G2 robust z-score | G2 cells, % of GMNN control | raw share of cells in G2 (%)
SERINC5 (serine incorporator 5) | 1 | -0.454 | -0.229 | 3.49
SERINC5 (serine incorporator 5) | 2 | 2.84 | 22.9 | 11
SERINC5 (serine incorporator 5) | 3 | 0.136 | 3.93 | 4.45
SYP (synaptophysin) | 1 | 2.42 | 20 | 11.4
SYP (synaptophysin) | 2 | -0.337 | 0.599 | 5.13
SYP (synaptophysin) | 3 | 0.17 | 4.17 | 4.62
RAI2 (retinoic acid induced 2) | 1 | -0.823 | -2.82 | 3.88
RAI2 (retinoic acid induced 2) | 2 | -0.897 | -3.35 | 2.75
RAI2 (retinoic acid induced 2) | 3 | 0.0351 | 3.21 | 4.38
C18orf32 (chromosome 18 open reading frame 32) | 1 | -0.854 | -3.04 | 2.45
C18orf32 (chromosome 18 open reading frame 32) | 2 | -0.615 | -1.36 | 2.9
C18orf32 (chromosome 18 open reading frame 32) | 3 | -0.807 | -2.71 | 2.2
GARS1 (glycyl-tRNA synthetase 1) | 1 | 0.443 | 6.08 | 7.45
GARS1 (glycyl-tRNA synthetase 1) | 2 | -0.604 | -1.28 | 4.78
GARS1 (glycyl-tRNA synthetase 1) | 3 | -0.0603 | 2.54 | 4.56
FUBP1 (far upstream element binding protein 1) | 1 | 1.11 | 10.8 | 8.56
FUBP1 (far upstream element binding protein 1) | 2 | 3.32 | 26.3 | 14.5
FUBP1 (far upstream element binding protein 1) | 3 | -0.561 | -0.982 | 4.09
HSD17B3 (hydroxysteroid 17-beta dehydrogenase 3) | 1 | 0.343 | 5.38 | 7
HSD17B3 (hydroxysteroid 17-beta dehydrogenase 3) | 2 | -0.535 | -0.798 | 5.38
HSD17B3 (hydroxysteroid 17-beta dehydrogenase 3) | 3 | 0.404 | 5.81 | 6.33
TLX3 (T cell leukemia homeobox 3) | 1 | 2.05 | 17.4 | 13.8
TLX3 (T cell leukemia homeobox 3) | 2 | 1.14 | 11 | 8.31
TLX3 (T cell leukemia homeobox 3) | 3 | -0.2 | 1.56 | 4.4
SMIM15 (small integral membrane protein 15) | 1 | -0.418 | 0.0292 | 3.65
SMIM15 (small integral membrane protein 15) | 2 | -0.166 | 1.8 | 3.92
SMIM15 (small integral membrane protein 15) | 3 | -0.504 | -0.582 | 2.98
LYPD3 (LY6/PLAUR domain containing 3) | 1 | 0.97 | 9.79 | 7.59
LYPD3 (LY6/PLAUR domain containing 3) | 2 | 0.33 | 5.29 | 6.55
LYPD3 (LY6/PLAUR domain containing 3) | 3 | -0.687 | -1.87 | 2.66
GUCY2F (guanylate cyclase 2F, retinal) | 1 | -0.458 | -0.253 | 4.95
GUCY2F (guanylate cyclase 2F, retinal) | 2 | 4.15 | 32.2 | 17.9
GUCY2F (guanylate cyclase 2F, retinal) | 3 | -0.514 | -0.648 | 3.96
CIBAR1P2 (CIBAR1 pseudogene 2) | 1 | 0.0168 | 3.09 | 4.93
CIBAR1P2 (CIBAR1 pseudogene 2) | 2 | -0.819 | -2.8 | 2.41
CIBAR1P2 (CIBAR1 pseudogene 2) | 3 | 0.315 | 5.18 | 6.94
TAF11L2 (TATA-box binding protein associated factor 11 like 2) | 1 | 0.181 | 4.24 | 5.35
TAF11L2 (TATA-box binding protein associated factor 11 like 2) | 2 | -0.167 | 1.79 | 4.23
TAF11L2 (TATA-box binding protein associated factor 11 like 2) | 3 | -0.76 | -2.38 | 3.8
NDUFAF1 (NADH:ubiquinone oxidoreductase complex assembly factor 1) | 1 | 0.0156 | 3.08 | 5.03
NDUFAF1 (NADH:ubiquinone oxidoreductase complex assembly factor 1) | 2 | 1.06 | 10.5 | 8.5
NDUFAF1 (NADH:ubiquinone oxidoreductase complex assembly factor 1) | 3 | -0.263 | 1.12 | 3.61
LCTL (lactase like) | 1 | 0.527 | 6.67 | 9.14
LCTL (lactase like) | 2 | -0.878 | -3.21 | 3.35
LCTL (lactase like) | 3 | 0.318 | 5.21 | 6.61
HOXC4 (homeobox C4) | 1 | 0.294 | 5.04 | 6.88
HOXC4 (homeobox C4) | 2 | 1.58 | 14.1 | 11
HOXC4 (homeobox C4) | 3 | -0.741 | -2.25 | 3.38
FAM74A3 (family with sequence similarity 74 member A3) | 1 | -0.809 | -2.73 | 2.57
FAM74A3 (family with sequence similarity 74 member A3) | 2 | 2.9 | 23.4 | 12.4
FAM74A3 (family with sequence similarity 74 member A3) | 3 | 0.315 | 5.18 | 4.7
PCBD2 (pterin-4 alpha-carbinolamine dehydratase 2) | 1 | -1.04 | -4.35 | 2.62
PCBD2 (pterin-4 alpha-carbinolamine dehydratase 2) | 2 | 4.2 | 32.5 | 19
PCBD2 (pterin-4 alpha-carbinolamine dehydratase 2) | 3 | -0.351 | 0.5 | 4.97
UBD (ubiquitin like modifier D) | 1 | -0.784 | -2.55 | 4.18
UBD (ubiquitin like modifier D) | 2 | 0.0458 | 3.29 | 5.32
UBD (ubiquitin like modifier D) | 3 | 0.311 | 5.16 | 5.28
SLC6A13 | 1 | -1.06 | -4.46 | 4.18
SLC6A13 | 2 | 0.14 | 3.95 | 5.9
SLC6A13 | 3 | 1.44 | 13.1 | 8.3
TRIM56 (tripartite motif containing 56) | 1 | -1.07 | -4.59 | 3.09
TRIM56 (tripartite motif containing 56) | 2 | -0.283 | 0.977 | 4.55
TRIM56 (tripartite motif containing 56) | 3 | -0.213 | 1.47 | 6.04
DOP1B (DOP1 leucine zipper like protein B) | 1 | -0.226 | 1.37 | 5.95
DOP1B (DOP1 leucine zipper like protein B) | 2 | 1.02 | 10.1 | 8.17
DOP1B (DOP1 leucine zipper like protein B) | 3 | -0.351 | 0.5 | 3.59
PCBP3 (poly(rC) binding protein 3) | 1 | -0.663 | -1.7 | 2.19
PCBP3 (poly(rC) binding protein 3) | 2 | 0.37 | 5.57 | 8.43
PCBP3 (poly(rC) binding protein 3) | 3 | -0.143 | 1.96 | 4.25

Reformatted: entries from further up
LYPD3 (LY6/PLAUR domain containing 3) #1: G2 robust z-score = 0.97; G2 cells, % of GMNN control = 9.79; raw share of cells in G2 (%) = 7.59
LYPD3 (LY6/PLAUR domain containing 3) #2: G2 robust z-score = 0.33; G2 cells, % of GMNN control = 5.29; raw share of cells in G2 (%) = 6.55
LYPD3 (LY6/PLAUR domain containing 3) #3: G2 robust z-score = -0.687; G2 cells, % of GMNN control = -1.87; raw share of cells in G2 (%) = 2.66
GUCY2F (guanylate cyclase 2F, retinal) #1: G2 robust z-score = -0.458; G2 cells, % of GMNN control = -0.253; raw share of cells in G2 (%) = 4.95
GUCY2F (guanylate cyclase 2F, retinal) #2: G2 robust z-score = 4.15; G2 cells, % of GMNN control = 32.2; raw share of cells in G2 (%) = 17.9
GUCY2F (guanylate cyclase 2F, retinal) #3: G2 robust z-score = -0.514; G2 cells, % of GMNN control = -0.648; raw share of cells in G2 (%) = 3.96
CIBAR1P2 (CIBAR1 pseudogene 2) #1: G2 robust z-score = 0.0168; G2 cells, % of GMNN control = 3.09; raw share of cells in G2 (%) = 4.93
